Source: the supplement of paper PMC6411743
± gives the standard deviation of the averaged measurements. The entries are a selection whose mix differs from that of the whole data set.

By UniProt entry, the sequences of proteins in these tests, tags left out. Where a name states a change or a piece, a line headed by the entry shows the natural chain unless it says otherwise.
UniProt Q16875: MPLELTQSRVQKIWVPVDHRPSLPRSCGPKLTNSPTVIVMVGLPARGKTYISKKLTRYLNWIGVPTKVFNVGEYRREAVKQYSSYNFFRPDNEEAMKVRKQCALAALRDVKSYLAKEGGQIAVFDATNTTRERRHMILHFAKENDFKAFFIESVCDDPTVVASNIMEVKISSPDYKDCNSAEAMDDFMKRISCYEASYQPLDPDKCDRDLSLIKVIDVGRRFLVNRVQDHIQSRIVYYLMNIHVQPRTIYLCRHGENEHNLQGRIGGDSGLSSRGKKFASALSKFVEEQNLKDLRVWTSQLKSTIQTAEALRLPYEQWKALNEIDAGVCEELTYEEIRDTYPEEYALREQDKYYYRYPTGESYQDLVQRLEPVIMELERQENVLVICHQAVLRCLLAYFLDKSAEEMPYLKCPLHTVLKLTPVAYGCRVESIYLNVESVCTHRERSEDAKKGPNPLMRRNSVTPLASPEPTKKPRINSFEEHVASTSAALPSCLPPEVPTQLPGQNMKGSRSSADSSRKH
UniProt P49591: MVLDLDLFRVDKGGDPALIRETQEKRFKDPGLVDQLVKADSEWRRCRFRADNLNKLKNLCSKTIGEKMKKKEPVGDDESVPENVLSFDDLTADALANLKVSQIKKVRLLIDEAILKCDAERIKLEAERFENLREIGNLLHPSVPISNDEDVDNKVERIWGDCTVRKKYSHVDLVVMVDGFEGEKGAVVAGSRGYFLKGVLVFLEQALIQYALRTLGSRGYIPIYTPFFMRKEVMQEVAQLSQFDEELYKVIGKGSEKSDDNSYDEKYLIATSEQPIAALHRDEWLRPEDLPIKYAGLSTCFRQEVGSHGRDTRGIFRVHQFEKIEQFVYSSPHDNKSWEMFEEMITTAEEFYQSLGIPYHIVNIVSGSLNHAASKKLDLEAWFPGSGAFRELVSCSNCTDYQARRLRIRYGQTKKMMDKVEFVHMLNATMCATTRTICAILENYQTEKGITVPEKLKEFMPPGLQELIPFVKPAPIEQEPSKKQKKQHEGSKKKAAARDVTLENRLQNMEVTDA
UniProt Q53FA7: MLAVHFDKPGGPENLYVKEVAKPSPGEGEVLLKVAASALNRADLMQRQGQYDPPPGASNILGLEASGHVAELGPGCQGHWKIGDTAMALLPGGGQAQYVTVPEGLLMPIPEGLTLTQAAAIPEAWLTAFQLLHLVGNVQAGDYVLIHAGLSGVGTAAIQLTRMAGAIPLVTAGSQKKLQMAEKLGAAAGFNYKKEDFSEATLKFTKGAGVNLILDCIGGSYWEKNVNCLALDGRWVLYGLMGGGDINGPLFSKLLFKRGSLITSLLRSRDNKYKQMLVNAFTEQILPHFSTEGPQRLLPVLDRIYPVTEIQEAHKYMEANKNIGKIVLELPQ
UniProt Q15274: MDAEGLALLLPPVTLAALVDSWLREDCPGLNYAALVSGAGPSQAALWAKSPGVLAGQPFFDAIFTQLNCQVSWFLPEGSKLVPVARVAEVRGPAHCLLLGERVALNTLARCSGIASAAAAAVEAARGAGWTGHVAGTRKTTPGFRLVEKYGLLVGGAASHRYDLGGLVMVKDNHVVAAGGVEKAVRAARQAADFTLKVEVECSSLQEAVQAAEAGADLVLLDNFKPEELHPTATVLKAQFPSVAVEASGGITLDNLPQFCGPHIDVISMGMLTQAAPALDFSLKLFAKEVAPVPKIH
UniProt Q5C9Z4: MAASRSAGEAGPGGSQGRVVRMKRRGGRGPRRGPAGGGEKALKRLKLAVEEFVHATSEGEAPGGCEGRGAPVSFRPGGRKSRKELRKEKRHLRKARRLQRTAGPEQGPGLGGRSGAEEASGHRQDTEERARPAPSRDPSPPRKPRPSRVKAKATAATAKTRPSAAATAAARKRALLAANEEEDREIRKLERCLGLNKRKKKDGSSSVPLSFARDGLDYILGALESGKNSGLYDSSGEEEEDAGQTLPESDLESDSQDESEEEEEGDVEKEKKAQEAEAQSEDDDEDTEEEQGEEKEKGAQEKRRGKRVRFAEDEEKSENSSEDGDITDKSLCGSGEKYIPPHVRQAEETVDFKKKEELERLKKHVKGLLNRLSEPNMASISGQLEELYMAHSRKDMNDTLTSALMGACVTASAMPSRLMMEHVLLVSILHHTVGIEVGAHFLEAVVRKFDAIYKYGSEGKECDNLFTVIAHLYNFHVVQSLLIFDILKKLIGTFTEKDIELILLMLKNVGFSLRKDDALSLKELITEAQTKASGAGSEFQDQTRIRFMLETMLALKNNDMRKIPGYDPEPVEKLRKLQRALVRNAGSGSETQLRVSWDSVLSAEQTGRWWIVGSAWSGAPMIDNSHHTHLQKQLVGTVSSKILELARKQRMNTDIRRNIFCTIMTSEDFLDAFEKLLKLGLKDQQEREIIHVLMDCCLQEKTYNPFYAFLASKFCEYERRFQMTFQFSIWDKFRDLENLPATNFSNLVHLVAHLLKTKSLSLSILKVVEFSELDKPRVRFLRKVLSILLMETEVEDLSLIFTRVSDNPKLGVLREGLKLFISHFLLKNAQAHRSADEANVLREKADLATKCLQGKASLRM
UniProt Q3ZCQ8: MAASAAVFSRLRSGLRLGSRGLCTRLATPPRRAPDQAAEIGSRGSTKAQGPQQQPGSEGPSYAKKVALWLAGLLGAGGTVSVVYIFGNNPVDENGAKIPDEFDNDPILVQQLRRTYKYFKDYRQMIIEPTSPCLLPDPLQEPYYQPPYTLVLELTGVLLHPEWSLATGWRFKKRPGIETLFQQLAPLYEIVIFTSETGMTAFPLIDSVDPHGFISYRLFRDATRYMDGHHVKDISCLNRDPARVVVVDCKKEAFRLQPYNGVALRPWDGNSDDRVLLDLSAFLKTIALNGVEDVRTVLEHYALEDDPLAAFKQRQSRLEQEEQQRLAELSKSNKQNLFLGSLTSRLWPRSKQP
UniProt Q5JU69: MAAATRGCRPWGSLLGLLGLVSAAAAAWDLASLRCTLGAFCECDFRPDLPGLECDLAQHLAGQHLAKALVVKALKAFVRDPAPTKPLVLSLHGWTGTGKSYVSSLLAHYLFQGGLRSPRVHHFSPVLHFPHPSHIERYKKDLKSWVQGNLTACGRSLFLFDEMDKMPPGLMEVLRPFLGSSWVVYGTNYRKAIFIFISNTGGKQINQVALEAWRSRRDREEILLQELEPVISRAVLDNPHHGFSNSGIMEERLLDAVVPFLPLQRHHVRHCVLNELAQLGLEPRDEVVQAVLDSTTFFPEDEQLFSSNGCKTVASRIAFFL
UniProt Q3B726, whole entry: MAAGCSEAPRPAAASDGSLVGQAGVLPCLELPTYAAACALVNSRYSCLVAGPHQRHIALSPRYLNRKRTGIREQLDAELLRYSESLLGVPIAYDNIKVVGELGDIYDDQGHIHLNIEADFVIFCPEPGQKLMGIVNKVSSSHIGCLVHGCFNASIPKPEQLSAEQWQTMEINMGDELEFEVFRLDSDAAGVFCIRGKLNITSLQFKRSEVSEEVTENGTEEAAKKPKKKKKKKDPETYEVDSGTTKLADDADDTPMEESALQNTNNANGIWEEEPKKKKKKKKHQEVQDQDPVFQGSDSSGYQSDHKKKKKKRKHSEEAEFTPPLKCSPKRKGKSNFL
UniProt Q15836, whole entry: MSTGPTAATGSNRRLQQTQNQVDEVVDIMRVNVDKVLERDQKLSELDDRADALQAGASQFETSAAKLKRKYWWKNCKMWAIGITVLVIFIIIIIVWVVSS
UniProt Q5T280: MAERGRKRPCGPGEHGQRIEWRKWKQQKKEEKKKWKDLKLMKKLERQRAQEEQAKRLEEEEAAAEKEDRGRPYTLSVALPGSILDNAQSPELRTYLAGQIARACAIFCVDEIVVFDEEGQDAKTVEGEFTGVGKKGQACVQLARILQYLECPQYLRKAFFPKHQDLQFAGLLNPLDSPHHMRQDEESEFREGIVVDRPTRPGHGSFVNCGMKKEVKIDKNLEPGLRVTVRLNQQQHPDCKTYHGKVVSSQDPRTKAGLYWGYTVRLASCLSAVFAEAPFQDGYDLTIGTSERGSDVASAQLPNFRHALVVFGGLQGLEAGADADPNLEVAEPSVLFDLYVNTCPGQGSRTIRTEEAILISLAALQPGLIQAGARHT
UniProt Q5QJ74: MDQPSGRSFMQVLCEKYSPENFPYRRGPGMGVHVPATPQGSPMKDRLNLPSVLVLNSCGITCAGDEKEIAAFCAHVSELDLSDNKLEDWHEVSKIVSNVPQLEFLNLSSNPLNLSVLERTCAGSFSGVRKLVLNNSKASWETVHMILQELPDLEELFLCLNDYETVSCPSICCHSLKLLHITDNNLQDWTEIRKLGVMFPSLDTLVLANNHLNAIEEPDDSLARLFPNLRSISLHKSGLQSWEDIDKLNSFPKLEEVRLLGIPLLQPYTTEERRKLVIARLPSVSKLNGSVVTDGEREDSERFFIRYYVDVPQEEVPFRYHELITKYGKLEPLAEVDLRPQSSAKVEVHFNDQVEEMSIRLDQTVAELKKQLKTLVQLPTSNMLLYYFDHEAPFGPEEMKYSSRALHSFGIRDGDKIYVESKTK
UniProt Q5JVF3: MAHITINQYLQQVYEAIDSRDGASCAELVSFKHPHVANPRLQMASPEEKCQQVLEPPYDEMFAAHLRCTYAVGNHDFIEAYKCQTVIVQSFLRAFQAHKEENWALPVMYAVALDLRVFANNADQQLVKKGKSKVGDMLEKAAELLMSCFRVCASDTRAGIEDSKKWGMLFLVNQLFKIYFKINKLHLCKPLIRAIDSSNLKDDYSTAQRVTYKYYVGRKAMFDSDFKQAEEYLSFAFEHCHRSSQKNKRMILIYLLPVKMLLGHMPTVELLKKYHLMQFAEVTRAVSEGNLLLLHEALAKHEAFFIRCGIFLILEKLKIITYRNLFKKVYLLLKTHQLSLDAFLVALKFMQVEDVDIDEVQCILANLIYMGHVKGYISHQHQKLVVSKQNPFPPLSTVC
UniProt Q5RI15: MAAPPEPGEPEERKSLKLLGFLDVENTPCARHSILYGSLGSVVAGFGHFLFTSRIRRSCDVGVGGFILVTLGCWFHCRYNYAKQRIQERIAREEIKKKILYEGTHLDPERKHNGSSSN
UniProt Q5JTZ9, whole entry: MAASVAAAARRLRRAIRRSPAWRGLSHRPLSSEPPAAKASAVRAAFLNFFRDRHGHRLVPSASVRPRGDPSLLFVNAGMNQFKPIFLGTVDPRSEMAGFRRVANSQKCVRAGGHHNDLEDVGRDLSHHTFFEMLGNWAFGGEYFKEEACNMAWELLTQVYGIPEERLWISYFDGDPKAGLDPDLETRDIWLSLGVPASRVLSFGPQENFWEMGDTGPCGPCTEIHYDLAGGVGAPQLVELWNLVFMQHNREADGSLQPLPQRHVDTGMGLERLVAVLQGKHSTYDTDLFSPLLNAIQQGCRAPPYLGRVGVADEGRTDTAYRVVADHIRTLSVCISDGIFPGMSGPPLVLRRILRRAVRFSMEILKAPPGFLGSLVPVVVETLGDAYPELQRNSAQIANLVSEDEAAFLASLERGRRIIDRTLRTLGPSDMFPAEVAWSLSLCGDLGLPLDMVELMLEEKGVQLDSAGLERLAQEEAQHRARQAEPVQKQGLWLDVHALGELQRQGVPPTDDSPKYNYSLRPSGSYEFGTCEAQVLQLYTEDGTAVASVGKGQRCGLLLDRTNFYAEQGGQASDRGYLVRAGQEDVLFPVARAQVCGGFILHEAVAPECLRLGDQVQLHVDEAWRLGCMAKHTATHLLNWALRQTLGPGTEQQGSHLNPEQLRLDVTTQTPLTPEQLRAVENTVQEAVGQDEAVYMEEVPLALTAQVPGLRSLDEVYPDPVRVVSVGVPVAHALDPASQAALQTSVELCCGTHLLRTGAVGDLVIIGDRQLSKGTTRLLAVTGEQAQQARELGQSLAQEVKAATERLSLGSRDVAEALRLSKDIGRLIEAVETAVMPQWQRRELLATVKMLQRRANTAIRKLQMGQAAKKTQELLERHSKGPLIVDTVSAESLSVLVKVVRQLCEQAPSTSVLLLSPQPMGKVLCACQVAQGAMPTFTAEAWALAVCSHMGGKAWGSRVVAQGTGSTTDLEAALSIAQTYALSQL
UniProt Q15796, whole entry: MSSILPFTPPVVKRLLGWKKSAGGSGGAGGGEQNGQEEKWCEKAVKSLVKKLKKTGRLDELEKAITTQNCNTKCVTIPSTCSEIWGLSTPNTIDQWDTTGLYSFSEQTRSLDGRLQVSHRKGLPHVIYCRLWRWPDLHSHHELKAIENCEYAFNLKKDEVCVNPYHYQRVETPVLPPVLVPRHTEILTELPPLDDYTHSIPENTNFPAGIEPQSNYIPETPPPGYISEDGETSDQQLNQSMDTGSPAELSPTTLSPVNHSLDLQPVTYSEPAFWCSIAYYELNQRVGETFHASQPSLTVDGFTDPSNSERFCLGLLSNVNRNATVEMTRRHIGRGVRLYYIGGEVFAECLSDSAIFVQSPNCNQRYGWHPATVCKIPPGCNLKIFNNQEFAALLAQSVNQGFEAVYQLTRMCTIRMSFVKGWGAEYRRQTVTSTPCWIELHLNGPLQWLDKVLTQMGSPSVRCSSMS
UniProt Q15649: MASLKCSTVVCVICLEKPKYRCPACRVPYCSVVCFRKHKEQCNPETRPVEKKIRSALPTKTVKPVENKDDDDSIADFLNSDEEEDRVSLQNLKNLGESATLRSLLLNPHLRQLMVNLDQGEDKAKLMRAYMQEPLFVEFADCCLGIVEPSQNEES

Compound: Nc1ncnc2c1ncn2[C@@H]1O[C@H](COP(=O)(O)OP(=O)(O)NP(=O)(O)O)[C@@H](O)[C@H]1O [adenylyl imidodiphosphate]
Test: NP40-soluble protein abundance relative to vehicle (solubility fold change) (ratio); higher = more soluble protein in presence of AMP-PNP
Procedure, shortened: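 Data come from three independent experiments in which Dounce-homogenised Jurkat crude lysate was treated at eight concentrations from 0.1 to 10 mM. Treatment ran 10 min at room temperature and then 3 min at 37 °C, after which 0.8% NP40 and benzonase were added for 60 min at 4 °C before ultracentrifugation. The supernatant underwent TMT labelling and LC-MS/MS, and vsn-normalised intensities were expressed as fold change against the detergent-processed vehicle in each replicate.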

Target	NP40-soluble protein abundance (concentration: 1mM)	NP40-soluble protein abundance (concentration: 2mM)	NP40-soluble protein abundance (concentration: 4mM)	NP40-soluble protein abundance (concentration: 6mM)	NP40-soluble protein abundance (concentration: 8mM)	NP40-soluble protein abundance (concentration: 10mM)
MAN2A1 (UniProt Q16706)	0.985 ± 0.012	0.938 ± 0.042	0.9353 ± 0.0082	0.96 ± 0.029	0.966 ± 0.017	0.948 ± 0.052
UniProt Q15906 and related entries	0.994 ± 0.068	1.04 ± 0.06	1.05 ± 0.095	1.09 ± 0.097	1.07 ± 0.096	1.14 ± 0.1
UniProt Q16611 and related entries	0.994 ± 0.035	0.952 ± 0.016	0.985 ± 0.043	0.96 ± 0.023	0.974 ± 0.032	0.932 ± 0.026
UniProt Q16875 and related entries	0.962 ± 0.026	0.973 ± 0.048	1.01 ± 0.03	1.01 ± 0.038	1.04 ± 0.07	0.983 ± 0.038
UniProt Q5TG30	1.058 ± 0.0072	0.99 ± 0.023	1.011 ± 0.0037	0.998 ± 0.015	1.06 ± 0.025	1.01 ± 0.044
Q5T5C7 (UniProt P49591)	0.988 ± 0.043	0.922 ± 0.097	0.959 ± 0.025	0.945 ± 0.053	0.988 ± 0.012	0.964 ± 0.043
UniProt Q58WW2 and related entries	0.996 ± 0.017	1.02 ± 0.064	0.998 ± 0.04	0.9925 ± 0.0036	0.9942 ± 0.0042	0.962 ± 0.032
TP53I3 (UniProt Q53FA7)	1.02 ± 0.036	0.999 ± 0.018	1.04 ± 0.025	1 ± 0.028	1 ± 0.017	1.01 ± 0.023
UniProt Q5T1M5 and related entries	1.01 ± 0.037	1.04 ± 0.073	0.979 ± 0.031	0.973 ± 0.045	0.925 ± 0.025	0.982 ± 0.013
ZNF800 (UniProt Q2TB10)	1.03 ± 0.017	1.044 ± 0.01	1.03 ± 0.019	1.07 ± 0.032	1.08 ± 0.03	1.1 ± 0.059
MLF2 (UniProt Q15773)	0.941 ± 0.025	0.931 ± 0.033	0.895 ± 0.018	0.9 ± 0.018	0.882 ± 0.032	0.853 ± 0.038
UniProt Q3YEC7	1 ± 0.031	1.05 ± 0.046	1.04 ± 0.014	1.03 ± 0.017	1.01 ± 0.039	1.02 ± 0.043
UniProt Q562F6 and related entries	1.01 ± 0.025	1.02 ± 0.037	1.01 ± 0.022	1.02 ± 0.047	0.975 ± 0.035	1.01 ± 0.018
UniProt Q5SRE5 and related entries	0.996 ± 0.044	1.02 ± 0.026	1.05 ± 0.046	1.03 ± 0.056	1.11 ± 0.042	1.22 ± 0.087
ZC3H13 (UniProt Q5T200)	1.063 ± 0.0095	1.12 ± 0.084	1.09 ± 0.029	1.09 ± 0.047	1.09 ± 0.018	1.13 ± 0.011
QPRT (UniProt Q15274)	0.96 ± 0.021	0.982 ± 0.029	0.978 ± 0.028	1 ± 0.035	1 ± 0.03	1.01 ± 0.05
PMVK (UniProt Q15126)	0.948 ± 0.0098	0.931 ± 0.018	0.973 ± 0.045	1.04 ± 0.07	1.04 ± 0.061	1.02 ± 0.052
NOM1 (UniProt Q5C9Z4)	1.026 ± 0.0033	1.04 ± 0.044	1.06 ± 0.056	1.06 ± 0.046	1.04 ± 0.062	1.04 ± 0.062
UniProt Q16854 and related entries	0.968 ± 0.044	0.883 ± 0.072	0.951 ± 0.039	0.8878 ± 0.0088	0.939 ± 0.022	0.88 ± 0.026
MANEA (UniProt Q5SRI9)	0.978 ± 0.034	0.9613 ± 0.0022	0.949 ± 0.022	0.964 ± 0.02	0.942 ± 0.039	0.945 ± 0.027

Target	NP40-soluble protein abundance (concentration: 1mM)	NP40-soluble protein abundance (concentration: 2mM)	NP40-soluble protein abundance (concentration: 4mM)	NP40-soluble protein abundance (concentration: 6mM)	NP40-soluble protein abundance (concentration: 8mM)	NP40-soluble protein abundance (concentration: 10mM)
HSP90AB4P (UniProt Q58FF6)	1.04 ± 0.05	1.04 ± 0.043	1.03 ± 0.03	1.01 ± 0.023	1 ± 0.057	1.03 ± 0.051
UniProt Q15653 and related entries	1.001 ± 0.0073	1.03 ± 0.025	1.03 ± 0.015	0.982 ± 0.023	0.957 ± 0.028	0.982 ± 0.024
UniProt Q3ZCQ8 and related entries	0.987 ± 0.032	0.967 ± 0.042	0.937 ± 0.043	0.958 ± 0.019	0.944 ± 0.044	0.946 ± 0.067
UniProt Q15370 and related entries	0.96 ± 0.035	0.975 ± 0.081	0.947 ± 0.06	1.1 ± 0.14	1.1 ± 0.084	1.1 ± 0.1
TOR2A (UniProt Q5JU69)	0.994 ± 0.02	0.99 ± 0.011	0.9767 ± 0.0048	0.9982 ± 0.0097	1.04 ± 0.024	1.005 ± 0.0066
TWISTNB (UniProt Q3B726)	0.975 ± 0.02	0.999 ± 0.022	1 ± 0.022	1.02 ± 0.055	1.06 ± 0.034	1.05 ± 0.072
FAM102B (UniProt Q5T8I3)	1.02 ± 0.046	0.998 ± 0.032	0.984 ± 0.02	1.01 ± 0.031	1.01 ± 0.017	0.9907 ± 0.0067
VAMP3 (UniProt Q15836)	0.99 ± 0.023	1.01 ± 0.026	1 ± 0.034	1.016 ± 0.0025	1.01 ± 0.018	0.987 ± 0.024
SKIV2L (UniProt Q15477)	0.823 ± 0.096	0.808 ± 0.13	0.805 ± 0.11	0.77 ± 0.063	0.745 ± 0.076	0.754 ± 0.068
HP1BP3 (UniProt Q5SSJ5)	0.963 ± 0.042	1.06 ± 0.063	1.03 ± 0.065	1.16 ± 0.017	1.18 ± 0.069	1.39 ± 0.15
UBE2V2 (UniProt Q15819)	0.9835 ± 0.008	1.01 ± 0.038	0.994 ± 0.023	1.01 ± 0.059	1.01 ± 0.031	0.988 ± 0.032
RAB11B (UniProt Q15907)	0.935 ± 0.041	0.853 ± 0.067	0.888 ± 0.026	0.957 ± 0.047	0.97 ± 0.039	0.895 ± 0.02
UniProt Q5THK1 and related entries	0.989 ± 0.043	0.98 ± 0.017	0.974 ± 0.02	0.964 ± 0.068	0.93 ± 0.051	0.929 ± 0.062
UniProt Q15652 and related entries	1.001 ± 0.0051	1.04 ± 0.013	1.062 ± 0.0066	1.06 ± 0.025	1.061 ± 0.0031	1.06 ± 0.021
ERCC6L (UniProt Q2NKX8)	0.998 ± 0.022	1.01 ± 0.036	0.993 ± 0.04	0.95 ± 0.032	0.942 ± 0.045	0.949 ± 0.064
UniProt Q5T280	1.01 ± 0.015	1.03 ± 0.015	1.005 ± 0.0046	1.06 ± 0.013	1.05 ± 0.0036	1.134 ± 0.01
TBCEL (UniProt Q5QJ74)	0.9994 ± 0.0047	0.974 ± 0.015	0.9867 ± 0.0053	0.982 ± 0.022	1.02 ± 0.038	0.964 ± 0.033
Q5QPM7 and related entries (UniProt Q92530)	1.01 ± 0.049	1.06 ± 0.074	1.04 ± 0.049	1 ± 0.029	1.01 ± 0.05	1.02 ± 0.042
UniProt Q5JVF3 and related entries	0.974 ± 0.022	0.937 ± 0.041	0.942 ± 0.039	0.967 ± 0.025	0.989 ± 0.025	0.973 ± 0.022
PPP2R5A (UniProt Q15172)	1 ± 0.035	0.995 ± 0.0064	1.02 ± 0.037	0.962 ± 0.017	0.973 ± 0.033	0.97 ± 0.016

Target	NP40-soluble protein abundance (concentration: 1mM)	NP40-soluble protein abundance (concentration: 2mM)	NP40-soluble protein abundance (concentration: 4mM)	NP40-soluble protein abundance (concentration: 6mM)	NP40-soluble protein abundance (concentration: 8mM)	NP40-soluble protein abundance (concentration: 10mM)
UniProt Q5EBL8 and related entries	1 ± 0.011	1.02 ± 0.023	0.9905 ± 0.0052	1 ± 0.025	1.02 ± 0.03	1.017 ± 0.0054
Q5JTV1 and related entries (UniProt Q9UKD1)	1.02 ± 0.019	1.03 ± 0.029	1.039 ± 0.0083	0.9994 ± 0.0089	0.984 ± 0.048	0.978 ± 0.047
LACTB2 (UniProt Q53H82)	1.01 ± 0.024	0.977 ± 0.054	0.966 ± 0.026	0.968 ± 0.048	0.958 ± 0.056	0.95 ± 0.053
MAPKAPK3 (UniProt Q16644)	1.01 ± 0.015	1.02 ± 0.07	0.972 ± 0.037	1.03 ± 0.033	0.992 ± 0.034	1.03 ± 0.022
UniProt Q5JSP0 and related entries	1.04 ± 0.022	1.06 ± 0.051	1.07 ± 0.029	1.02 ± 0.027	1.03 ± 0.017	1.046 ± 0.004
UniProt Q5RI15 and related entries	1.12 ± 0.073	1.13 ± 0.1	1.05 ± 0.034	1.1 ± 0.044	1.05 ± 0.049	1.11 ± 0.04
UniProt Q5JPI3-2|E9PFZ1 and related entries	1.01 ± 0.058	0.995 ± 0.053	0.994 ± 0.039	0.963 ± 0.051	0.963 ± 0.037	0.957 ± 0.023
TRIP4 (UniProt Q15650)	0.991 ± 0.015	1.02 ± 0.052	1.04 ± 0.043	1.05 ± 0.033	1.03 ± 0.07	1.03 ± 0.1
SF3A2 (UniProt Q15428)	0.972 ± 0.023	1.05 ± 0.058	1.02 ± 0.036	1.08 ± 0.02	1.09 ± 0.018	1.11 ± 0.047
PDS5A (UniProt Q29RF7)	1.005 ± 0.01	0.9981 ± 0.0058	0.998 ± 0.012	0.99111 ± 0.00078	0.979 ± 0.022	0.98 ± 0.016
UBE2S (UniProt Q16763)	1.05 ± 0.029	1.02 ± 0.023	1.05 ± 0.03	0.989 ± 0.025	1.02 ± 0.018	0.989 ± 0.034
UniProt Q5T2E6 and related entries	0.973 ± 0.043	0.947 ± 0.037	0.945 ± 0.057	0.992 ± 0.033	1.01 ± 0.037	0.981 ± 0.045
AARS2 (UniProt Q5JTZ9)	0.981 ± 0.0018	0.96 ± 0.037	0.983 ± 0.035	0.972 ± 0.018	0.97 ± 0.044	0.957 ± 0.035
UniProt Q32P28 and related entries	1 ± 0.03	1.02 ± 0.035	1.02 ± 0.012	1.028 ± 0.0022	1.04 ± 0.028	1.08 ± 0.041
UniProt Q16555 and related entries	1.02 ± 0.037	1.01 ± 0.036	1.01 ± 0.045	0.955 ± 0.022	0.958 ± 0.046	0.95 ± 0.048
ETFDH (UniProt Q16134)	1.01 ± 0.015	0.967 ± 0.043	1 ± 0.028	0.978 ± 0.039	0.989 ± 0.026	0.969 ± 0.05
TRMT5 (UniProt Q32P41)	0.928 ± 0.014	0.857 ± 0.063	0.894 ± 0.046	0.9421 ± 0.0066	0.935 ± 0.029	0.891 ± 0.044
UniProt Q15796 and related entries	1.02 ± 0.024	1.03 ± 0.027	0.985 ± 0.029	1.04 ± 0.029	1.03 ± 0.062	1.06 ± 0.082
ZNHIT3 (UniProt Q15649)	1 ± 0.037	1.027 ± 0.0095	0.9981 ± 0.0094	1.02 ± 0.018	1.03 ± 0.011	1.07 ± 0.011
COX19 (UniProt Q49B96)	1.04 ± 0.017	1.06 ± 0.066	0.982 ± 0.075	0.96 ± 0.018	1 ± 0.02	0.9233 ± 0.0052

As entered above.
Entry for UniProt Q3ZCQ8 and related entries under NP40-soluble protein abundance (concentration: 10mM): 0.946 ± 0.067
Entry for TOR2A (UniProt Q5JU69) under NP40-soluble protein abundance (concentration: 6mM): 0.9982 ± 0.0097
Entry for UniProt Q15370 and related entries under NP40-soluble protein abundance (concentration: 8mM): 1.1 ± 0.084
